We go through two substances from US10689458B2 (Pfizer Inc., priority 2015, dated 2020).

The series is described as follows: general procedure: solution-phase peptide synthesis; HATU.

On to “2-methylalanyl-N-[(3R,4S,5S)-3-methoxy-1-{(2S)-2-[(1R,2R)-1-methoxy-2-methyl-3-oxo-3-{[(1S)-2-phenyl-1-(1,3-thiazol-2-yl)ethyl]amino}propyl]pyrrolidin-1-yl}-5-methyl-1-oxoheptan-4-yl]-N-methyl-L-valinamide”, for which the step yield (late stage modification step) is reported as 75%. Regarding “N-[(9H-fluoren-9-ylmethoxy)carbonyl]-2-methylalanyl-N-[(3R,4S,5S)-3-methoxy-1-{(2S)-2-[(1R,2R)-1-methoxy-2-methyl-3-oxo-3-{[(1S)-2-phenyl-1-(1,3-thiazol-2-yl)ethyl]amino}propyl]pyrrolidin-1-yl}-5-methyl-1-oxoheptan-4-yl]-N-methyl-L-valinamide”, the step yield (coupling step) worked out at 74%.
